In patent US20230265211A1 (published 2023):
These are yes or no findings as the source states them, for the method shown. Some entries that bind do so weakly or less than the wild type.

Key:
[1] = target: T1, recombinant form of the PS SHBG-like domain alone (rSHBG) (human) (UniProt P07225); test: direct ELISA, 0.5 nM PS003biv on immobilized rSHBG, anti-His6 detection
T1 sequence (looked up): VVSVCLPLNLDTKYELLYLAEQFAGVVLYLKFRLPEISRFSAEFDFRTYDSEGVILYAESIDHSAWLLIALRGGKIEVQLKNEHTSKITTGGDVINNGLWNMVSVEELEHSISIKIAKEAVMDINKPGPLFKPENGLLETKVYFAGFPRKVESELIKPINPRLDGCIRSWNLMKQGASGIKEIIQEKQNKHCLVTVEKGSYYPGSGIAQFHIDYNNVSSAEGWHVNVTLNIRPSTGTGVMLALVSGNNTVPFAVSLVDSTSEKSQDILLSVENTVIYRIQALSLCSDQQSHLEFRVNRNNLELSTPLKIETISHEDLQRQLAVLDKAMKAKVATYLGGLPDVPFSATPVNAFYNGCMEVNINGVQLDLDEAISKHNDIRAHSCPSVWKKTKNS

[2] = target: T1, recombinant form of the PS SHBG-like domain alone (rSHBG) (human); test: direct ELISA, 0.5 nM PS003biv on immobilized rSHBG (text after legend of FIG. 7)
[3] = target: T1, recombinant form of the PS SHBG-like domain alone (rSHBG) (human); test: direct ELISA on immobilized rhSHBG (legend of FIG. 4)

B1: PS003biv (VHH)
chain: QVQLQESGGGLVQAGGSLRLSCAASGRTFSSYAMGWVRQAPGKEREFVAAISYNGGRTNYADSVKGRFTISRDNAKNTGYLQMNSLKPEDTAVYYCAANPRMWGSVDFRSWGQGTQVTVSSGGGSGGGSGGGSGGGSQVQLQESGGGLVQAGGSLRLSCAASGRTFSSYAMGWVRQAPGKEREFVAAISYNGGRTNYADSVKGRFTISRDNAKNTGYLQMNSLKPEDTAVYYCAANPRMWGSVDFRSWGQGTQVTVSS
notes: also called bivalent PS003; not shown: N-terminal His6-tag from the pET28 format; C-terminal haemagglutinin (HA)-tag
For B1, the binding [1] was “binds” and the binding [2] was “binds”.

B2: PS003 (VHH)
VHH: QVQLQESGGGLVQAGGSLRLSCAASGRTFSSYAMGWVRQAPGKEREFVAAISYNGGRTNYADSVKGRFTISRDNAKNTGYLQMNSLKPEDTAVYYCAANPRMWGSVDFRSWGQGTQVTVSS
notes: Llama VHH selected by phage display on rhPS; Purified form expressed from pET28 in E. coli with N-terminal His6-tag and C-terminal HA-tag; also called PS003 nanobody; monovalent PS003; not shown: N-terminal His6-tag from the pET28 format; C-terminal haemagglutinin (HA)-tag
B2 was tested, and the binding [3] was “binds”.
